# Literature values in patent publication US11912664B2, “Determining small molecule-protein and protein-protein interactions” (President and Fellows of Harvard College, priority 2017, dated 2024).
# Conditions: in vivo; cited from earlier work
smiles,measurement,value
"COc1ccc2cc([C@H](C)C(=O)O)ccc2c1 [naproxen (1), naproxen]",blood plasma concentration,> 250 µM
